Experimental findings from PMC4603762 are described below.

Chains of the proteins cited; added tags and fusions are not shown. Residues count along the entry.
UniProt Q04206: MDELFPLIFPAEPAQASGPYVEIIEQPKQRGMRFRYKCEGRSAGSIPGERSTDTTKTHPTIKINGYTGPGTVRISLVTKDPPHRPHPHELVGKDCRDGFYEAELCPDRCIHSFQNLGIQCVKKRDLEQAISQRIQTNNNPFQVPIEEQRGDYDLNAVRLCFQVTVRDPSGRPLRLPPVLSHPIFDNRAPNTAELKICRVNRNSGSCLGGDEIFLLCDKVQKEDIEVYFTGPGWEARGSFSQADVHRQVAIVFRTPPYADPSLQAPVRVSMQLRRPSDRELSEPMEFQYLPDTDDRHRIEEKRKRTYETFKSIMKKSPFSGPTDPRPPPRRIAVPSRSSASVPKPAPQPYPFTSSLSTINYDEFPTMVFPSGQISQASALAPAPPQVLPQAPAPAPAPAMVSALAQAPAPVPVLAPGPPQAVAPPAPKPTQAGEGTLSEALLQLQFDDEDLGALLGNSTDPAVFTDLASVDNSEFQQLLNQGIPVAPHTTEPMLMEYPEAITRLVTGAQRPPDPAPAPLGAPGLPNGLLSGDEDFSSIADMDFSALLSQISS
UniProt P61956: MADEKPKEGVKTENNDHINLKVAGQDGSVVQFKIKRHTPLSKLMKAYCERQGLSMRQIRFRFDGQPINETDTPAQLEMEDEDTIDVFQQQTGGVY
UniProt P55854, residues 1-92: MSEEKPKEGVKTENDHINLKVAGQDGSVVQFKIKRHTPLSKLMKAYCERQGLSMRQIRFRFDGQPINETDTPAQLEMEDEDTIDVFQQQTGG

The assay has as its target NF-κB p65 (human (endogenous in SMMC7721)) (UniProt Q04206). The assay can be described thus: co-IP; SMMC7721 cells co-transfected with myc-Ubc9 and GFP-SUMO2 or GFP-SUMO3, lysed 24 h after transfection, with or without TNF-α (10 ng/ml, 30 min); anti-p65 antibody with Protein A agarose, 4 h at 4 °C; lysis buffer 50 mM HEPES pH 7.4, 150 mM NaCl, 2 mM EGTA, 0.1 % Triton X-100, NEM; isotype IgG as negative control; western blot. (Immunoblotting shows a protein as a band on a membrane.)

No constants are given. Whether binding was seen depends on the method and setting. Binding seen in cells or lysates may run through a third protein. Some results given as binding are weak or reduced against the parent protein; the word gives no strength.

Turning to GFP-SUMO2 (from UniProt P61956 1-95), the binding entry is “binds weakly”.
As to GFP-SUMO3 (from UniProt P55854 1-92), the binding result is “binds weakly”.
